Measured values from PMC6533038.
These are yes or no findings as the source states them, for the method shown. In cells and extracts the contact can be indirect.

Protein sequences, listed by entry. Tags and fused reporters are not part of them.
UniProt Q96LR5: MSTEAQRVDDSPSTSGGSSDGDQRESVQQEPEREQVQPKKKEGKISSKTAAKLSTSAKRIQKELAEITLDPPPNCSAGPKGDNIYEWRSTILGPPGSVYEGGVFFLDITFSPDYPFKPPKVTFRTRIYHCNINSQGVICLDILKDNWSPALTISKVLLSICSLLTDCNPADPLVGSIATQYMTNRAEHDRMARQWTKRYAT

Biological target: Cbl expressed in HEK293T cells (UniProt P22681)
Assay: co-IP; HEK293T transfected with Flag-tagged Ube2e1, Ube2e2 or Ube2e3 with empty vector or EGFR/Cbl; NP40 lysis buffer; Cbl precipitated with anti-Cbl (C-15), blot with anti-Flag

binding: no binding
Substance: Flag-tagged Ube2e2 (from UniProt Q96LR5 1-201) (enzyme)
